No constants are given. Whether binding was seen depends on the method and setting. In cells and extracts the contact can be indirect. A yes stands for co-enrichment or nearness to the bait. Other partners may have been found. For some of these results: A no says only that the protein was not detected with the bait. Where a sequence is shown, tags or fusion partners need not be part of it.

By UniProt entry, the sequences of proteins in these tests, tags left out.
UniProt O17695: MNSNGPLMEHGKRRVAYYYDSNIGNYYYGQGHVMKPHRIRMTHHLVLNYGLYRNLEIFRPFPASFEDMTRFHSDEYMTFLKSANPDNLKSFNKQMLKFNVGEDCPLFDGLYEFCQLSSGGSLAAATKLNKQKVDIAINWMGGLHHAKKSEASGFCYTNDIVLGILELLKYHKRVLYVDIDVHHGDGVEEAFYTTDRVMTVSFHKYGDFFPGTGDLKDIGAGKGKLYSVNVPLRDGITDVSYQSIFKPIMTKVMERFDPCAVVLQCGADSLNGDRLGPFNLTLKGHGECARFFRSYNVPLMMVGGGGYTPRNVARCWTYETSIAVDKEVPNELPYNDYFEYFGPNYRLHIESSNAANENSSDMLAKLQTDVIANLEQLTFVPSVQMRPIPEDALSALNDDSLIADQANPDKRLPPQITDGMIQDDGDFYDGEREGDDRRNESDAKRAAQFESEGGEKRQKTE
UniProt G5EBZ4: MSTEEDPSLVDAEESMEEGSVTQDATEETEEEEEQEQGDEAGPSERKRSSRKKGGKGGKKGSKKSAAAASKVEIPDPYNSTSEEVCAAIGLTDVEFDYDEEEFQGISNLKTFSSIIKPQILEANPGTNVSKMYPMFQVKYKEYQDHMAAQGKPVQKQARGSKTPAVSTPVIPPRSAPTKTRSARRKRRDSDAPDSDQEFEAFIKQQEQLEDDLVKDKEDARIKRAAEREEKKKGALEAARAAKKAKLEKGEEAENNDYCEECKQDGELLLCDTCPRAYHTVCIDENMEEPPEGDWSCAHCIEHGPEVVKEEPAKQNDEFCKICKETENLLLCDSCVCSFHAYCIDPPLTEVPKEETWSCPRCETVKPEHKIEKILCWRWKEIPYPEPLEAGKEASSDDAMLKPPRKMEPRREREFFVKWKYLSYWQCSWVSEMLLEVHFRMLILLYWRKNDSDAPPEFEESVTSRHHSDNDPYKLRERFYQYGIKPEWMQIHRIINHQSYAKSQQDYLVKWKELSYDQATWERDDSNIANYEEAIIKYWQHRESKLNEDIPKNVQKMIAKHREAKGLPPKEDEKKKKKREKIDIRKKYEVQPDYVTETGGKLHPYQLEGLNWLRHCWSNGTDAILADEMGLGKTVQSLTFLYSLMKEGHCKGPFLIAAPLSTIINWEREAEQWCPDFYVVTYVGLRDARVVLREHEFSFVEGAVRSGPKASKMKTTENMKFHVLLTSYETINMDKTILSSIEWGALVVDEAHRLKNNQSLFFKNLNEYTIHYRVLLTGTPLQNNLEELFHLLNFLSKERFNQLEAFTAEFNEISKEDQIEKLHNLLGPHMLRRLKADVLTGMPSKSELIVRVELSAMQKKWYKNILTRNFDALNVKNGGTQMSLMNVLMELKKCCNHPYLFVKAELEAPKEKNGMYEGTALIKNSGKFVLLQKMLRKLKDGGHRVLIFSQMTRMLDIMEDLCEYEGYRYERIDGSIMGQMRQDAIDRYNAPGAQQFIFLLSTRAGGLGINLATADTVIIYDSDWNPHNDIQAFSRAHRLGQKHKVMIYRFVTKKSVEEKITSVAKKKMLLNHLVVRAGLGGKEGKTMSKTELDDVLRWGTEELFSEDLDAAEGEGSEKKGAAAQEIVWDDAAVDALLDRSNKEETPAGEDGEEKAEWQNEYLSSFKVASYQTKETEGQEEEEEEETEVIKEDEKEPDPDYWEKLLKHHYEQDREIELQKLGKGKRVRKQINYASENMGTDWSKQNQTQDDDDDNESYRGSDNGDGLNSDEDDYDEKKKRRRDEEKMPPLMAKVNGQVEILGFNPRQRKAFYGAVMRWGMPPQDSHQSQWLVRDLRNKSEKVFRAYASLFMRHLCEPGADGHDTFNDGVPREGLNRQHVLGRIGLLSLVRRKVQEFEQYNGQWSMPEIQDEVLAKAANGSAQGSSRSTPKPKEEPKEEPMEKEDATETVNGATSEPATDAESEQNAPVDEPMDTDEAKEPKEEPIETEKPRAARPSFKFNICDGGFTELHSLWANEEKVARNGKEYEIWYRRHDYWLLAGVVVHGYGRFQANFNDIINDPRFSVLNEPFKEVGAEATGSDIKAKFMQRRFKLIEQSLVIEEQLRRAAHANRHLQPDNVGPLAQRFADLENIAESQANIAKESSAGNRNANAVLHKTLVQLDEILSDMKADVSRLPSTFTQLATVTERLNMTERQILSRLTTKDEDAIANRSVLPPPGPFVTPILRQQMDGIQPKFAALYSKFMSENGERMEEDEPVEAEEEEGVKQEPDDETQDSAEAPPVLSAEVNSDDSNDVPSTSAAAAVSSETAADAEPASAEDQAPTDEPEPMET
UniProt P90916: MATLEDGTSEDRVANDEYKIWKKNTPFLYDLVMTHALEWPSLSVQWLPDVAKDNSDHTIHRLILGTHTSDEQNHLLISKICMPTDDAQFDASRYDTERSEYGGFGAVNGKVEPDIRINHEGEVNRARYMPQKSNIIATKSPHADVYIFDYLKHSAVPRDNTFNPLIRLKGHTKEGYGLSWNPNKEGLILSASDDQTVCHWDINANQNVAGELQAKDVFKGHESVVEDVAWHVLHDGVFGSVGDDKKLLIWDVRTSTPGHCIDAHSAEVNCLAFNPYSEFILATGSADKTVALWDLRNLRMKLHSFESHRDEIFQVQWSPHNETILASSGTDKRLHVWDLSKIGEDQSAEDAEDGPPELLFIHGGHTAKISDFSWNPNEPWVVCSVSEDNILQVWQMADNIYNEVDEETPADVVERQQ

Sequences and labels used below:
T1: AKIR-1::GFP (C. elegans) (UniProt Q966L3)
T1 sequence: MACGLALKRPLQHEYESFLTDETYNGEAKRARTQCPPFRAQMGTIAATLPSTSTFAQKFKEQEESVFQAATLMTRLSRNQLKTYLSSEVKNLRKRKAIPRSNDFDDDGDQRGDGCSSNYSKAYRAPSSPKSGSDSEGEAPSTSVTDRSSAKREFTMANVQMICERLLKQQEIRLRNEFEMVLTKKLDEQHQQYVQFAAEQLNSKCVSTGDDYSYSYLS

B1: PMK-3 (protein, UniProt O44514 1-474)
chain: MASVPSSSSLPVSHVRRHEDVSTPSAPPTKRSNNQSQPPESYEPNTWLQQQREQEQQKKLAAENIKKQSIEATGNNEMVGEEEEDILSKPCGPHKRRFQFVMIRNITFAIPEGYDVEPNSIEYLGGGSFGNVIKTSAVCRDGLRRYVAIKKMREPFFDPHHARRIFRETKLLQLMRHDNIICALDIYTPDEENDFRDVYVVTEFAGRSLYQILKQQRDYGRRVLTDEHIKFIIYQIIRALKYIHSANIIHRDLKPGNLALTDDSDLMILDFGLARSLEKKDTSLTQYVQTRWYRSPEVIYWKIDSYTNLADMWSLGCIAAELLTGEPLFPGDEPNAQYQRITQLCGSPDEELLTKIENDNSSAIKAVIQSYTTHKRRNFRDVFSAHNPSEDFIDLLEKLLVLDPEKRITVEEAIQHPYLAEFSLPEDEPRADHIFDLDDSQARTRFEWRDAVWKEIMNYKRLSSSPLIPGEADR
B2: CEH-18 (protein, UniProt P41934 1-542)
chain: MNTLENTFQFLAEVFEANGGCLVTERVSPSLSGASKRKSRPVKRIITEDEVIPEEEVVEEEEEEKVEQPSEEVTCPAMQVDATDAILASLRQIANNDLSEHCIREDEGNTSAEVFSNGNGEDMEQAGLAGTDLLRRVADMLQGNHNGSLNSHFLQQQFAAFKETVDPTPVSTNGNGLLTPITTQLSPLFTSTDAFNSPEKLLQAIMTPSLGFLGANGLGASNSGLLSSPLIAPSPTLLQSLMNTPTQPTASLTPKKAENRPPVVSQTLKASKRRLFDDTSRIEAASMSGDDRIDMNELEAFAQTFKKQRIKFGFTQGDVGVALGKRYGTDFSQTTISRFEALNLSFKNMCKLRPLLKEWLADVEMAIEGGATVTDLIDKKTIHNGNHHTIHHVDIHETSISNSISSVTASSLLSREQHVKRRRKRTNLDMNQRNALDTFFALNPRPDHDKMTDIANSLELDRDVVRVWFCNRRQKMRRVDEPIEGEMVTPSVSPVFPHFSSMSALEQIQEAARLASCQASNDDSDGTSGSPDAPSNDGCSDL
B3: STA-2 (protein, UniProt Q20977 1-567)
chain: MSSVVSDQMDIESSSAFSPAEPVVDGAFVSKHNLSAEAYQGFKECADSLLSGKIAQNEQLPFIQRTLQICENVILNFEDEKQHLMSDVLLVWAMKQQKLSIATLHTQQLHYKELDLINLQFEYFGELLQQTLSGLDYLKQYYPNVGFEEVHSKVRNLTHYFLYYSIIVSRQPPSVIVKCGEAENHRRSRFWFNTEIRILGGSAFGIDTNNENSNVNCYLITDETAKQLLNNAYLDIFESEEFCIEPNTSTFQKKDARGIKAKFDDMKVAKKVALRRDSVATKRYCLCYNIQLQTNCGIELVGKKVSLPFAVLVGPKADVEAKLFLERSFADLVRHPLSDIPTHVSCAEMADALEMKFQAIIETPQKNTDGPSVVQPRKFNMQTKQHLVMRMKPNNQGFLPLDNFMKLPVAEEFQHKKSASAEGDWKLVPFYDWFFKLAEITNKYLYSMWYDGLVYGFCSKEDAENILRCIPRSVLLVRFSDIEYGKIKISVKNRNGEIRHHWYEHADLNARSLNSELLSNHKFSDVDLIYPDIDLEVALGGRNKPRIRLPRNLAPDEIYFDNQGAAT
B4: PMK-1 (protein, UniProt Q17446 1-377)
chain: MFPQTTMDHILHPTPREGYYVVELNRSVWVVPNYYINLTPIGTGAYGTVCAAECTRSGTRVAIKKFNRPFQSIIHARRTYRELRLLRCMCHENIIDLLDVFTPNENVNDIEDVYFVSMLMGADLSNILKIQRLNDDHIQFLVYQILRGLKYIHSADIIHRDLKPSNIAVNEDCELKILDFGLARQTDSEMTGYVATRWYRAPEIMLNWMHYTQTVDVWSVGCILAELITGKTLFPGSDHIDQLTRIMSVTGTPDEEFLKKISSEEARNYIRNLPKMTRRDFKRLFAQATPQAIDLLEKMLHLDPDRRPTAKEAMEHEYLAAYHDETDEPIAEEMDLNDDVRADTIDEWKKIIWEEISDFQKNVAFADEEEDEEKMES
B5: MEP-1 (protein, UniProt Q21502 1-870)
chain: MVTADETVLATTTNTTSMSVEPTDPRSAGESSSDSEPDTIEQLKAEQREVMADAANGSEVNGNQENGKEEAASADVEVIEIDDTEESTDPSPDGSDENGDAASTSVPIEEEARKKDEGASEVTVASSEIEQDDDGDVMEITEEPNGKSEDTANGTVTEEVLDEEEPEPSVNGTTEIATEKEPEDSSMPVEQNGKGVKRPVECIELDDDDDDEIQEISTPAPAKKAKIDDVKATSVPEEDNNEQAQKRLLDKLEEYVKEQKDQPSSKSRKVLDTLLGAINAQVQKEPLSVRKLILDKVLVLPNTISFPPSQVCDLLIEHDPEMPLTKVINRMFGEERPKLSDSEKRERAQLKQHNPVPNMTKLLVDIGQDLVQEATYCDIVHAKNLPEVPKNLETYKQVAAQLKPVWETLKRKNEPYKLKMHRCDVCGFQTESKLVMSTHKENLHFTGSKFQCTMCKETDTSEQRMKDHYFETHLVIAKSEEKESKYPCAICEEDFNFKGVREQHYKQCKKDYIRIRNIMMPKQDDHLYINRWLWERPQLDPSILQQQQQAALQQAQQKKQQQLLHQQQAAQAAAAAQLLRKQQLQQQQQQQQARLREQQQAAQFRQVAQLLQQQSAQAQRAQQNQGNVNHNTLIAAMQASLRRGGQQGNSLAVSQLLQKQMAALKSQQGAQQLQAAVNSMRSQNSQKTPTHRSSKLVTTPSHATVGSSSAPTFVCEICDASVQEKEKYLQHLQTTHKQMVGKVLQDMSQGAPLACSRCRDRFWTYEGLERHLVMSHGLVTADLLLKAQKKEDGGRCKTCGKNYAFNMLQHLVADHQVKLCSAEIMYSCDVCAFKCSSYQTLEAHLTSNHPKGDKKTSTPAKKDDCITLDD
B6: DCP-66 (protein, UniProt G5ED89 1-724)
chain: MAQVQQVPSSPMNGIPEKNGNGLSIEESASTAVAALAHIQNGAVLFHGTPTKDLNGASTSIDTDDLQLSPSDLRRRSTRASALKAQEKIKLKDDIVQGPQKRANDDDDMEDEELGDEINEQSAPKKRRLENGKEFDQTCFRFGLRANNEGEVYAMTDESENSSIHESEMEVVRYHYEKMKNKEPDEEQLRERLNMRREAENQLREEEAKLLVLRKMKDSQTRAITKLAAETKAADLAEATSAAYKPAVATNGKSVTNGKNSMIESNNKTMNGLKNLSIPQQLELLQKLSSQSPAAKQAYIMAKKNPAQTTQLFQQLITINNQNLQKQKELSAAETNASASASPAVQQSQQAQQPQQAQITQSKLLNQQTPAQRIQAARLAFRAQADKQLTTIPTQKSQPHDITFLPNPNASAFLALHGLDLVVQHVLKDRSNETPYAGPSYECEECKTECAHTWKAIGSTQDDLHLYCENCVRSAQKRKNRTDQTALLKRAFQKITAQEKLLQEFEKKIAEGQLEQYAEAKAAAPATSQTIPTSSTATVSSIPLVPRLPQIPSSTGSSTPTQAVKTSTPIHSTPKSSSSSAKKTAAQLQQQSMQGMNQLFSTAMLRNNPQMQQMLQMYQALAMGGGAANMANNQMAMLFQAQAMQAAQAQVARAQAAKAQAAQAQAAQAQAQAQANREANQQSMLIQALMSNGQVNVQALQQLQKLTPEQQKALIEVVKRQTRK

One experiment concerns the target T1, AKIR-1::GFP (C. elegans). In words: affinity purification with mass spectrometry; AKIR-1::GFP captured on anti-GFP agarose beads (NanoTrap) against blocked control beads, from cleared lysates of mixed-stage worms carrying akir-1p::AKIR-1::gfp, uninfected or infected with D. coniospora for 16 h at 25°C; 4°C, washes up to 300 mM NaCl; label-free quantitative LC-MS/MS, 3 independent experiments.
Take HDA-1 (from UniProt O17695 1-461): the binding entry was “binds”.
As for LIN-40, the binding result is listed as “binds”.
For the molecule LET-418 (from UniProt G5EBZ4 1-1829), the binding entry is on record as “binds”.
Same read-out and setting: in the case of LIN-53 (from UniProt P90916 1-417) it was “binds”.

In the next experiment the target is T1, AKIR-1::GFP (C. elegans). The experiment is described as above. This is another data set of the same source.
With B1, the binding entry was “binds”.
On the same count and under the same terms, in the case of B2 it was “binds”; in that of B3, “no binding”.
On the same count and under the same terms, in the case of B4 it was “no binding”; in that of B5, “binds”; in that of B6, “binds”.
